# Source: PMC4161027
# Amino acid sequences for entries named in this document (tags omitted). A change or cut given only in a name is not applied to a line headed by its entry. Residues count along the entry.
# UniProt P63027: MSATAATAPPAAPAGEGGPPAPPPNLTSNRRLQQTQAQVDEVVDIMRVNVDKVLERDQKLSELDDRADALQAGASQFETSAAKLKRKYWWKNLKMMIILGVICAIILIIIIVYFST
# Syb2-HA Δ1–31: residues 32-116 of P63027
# UniProt O88339: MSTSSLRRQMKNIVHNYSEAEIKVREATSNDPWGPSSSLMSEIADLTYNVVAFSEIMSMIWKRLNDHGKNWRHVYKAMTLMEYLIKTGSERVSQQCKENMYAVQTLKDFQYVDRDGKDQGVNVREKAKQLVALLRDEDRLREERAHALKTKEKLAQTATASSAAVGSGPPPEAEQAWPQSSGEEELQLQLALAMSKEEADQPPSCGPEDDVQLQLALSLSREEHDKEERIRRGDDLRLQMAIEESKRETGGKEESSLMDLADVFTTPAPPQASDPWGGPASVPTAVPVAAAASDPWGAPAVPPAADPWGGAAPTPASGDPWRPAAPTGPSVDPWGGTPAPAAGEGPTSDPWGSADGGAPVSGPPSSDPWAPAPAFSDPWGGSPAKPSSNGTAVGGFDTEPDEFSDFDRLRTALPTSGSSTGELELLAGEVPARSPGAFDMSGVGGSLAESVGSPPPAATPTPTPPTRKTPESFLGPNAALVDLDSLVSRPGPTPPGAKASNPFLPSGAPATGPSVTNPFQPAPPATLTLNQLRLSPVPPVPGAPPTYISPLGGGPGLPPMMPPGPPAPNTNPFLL
# Results are given in words; binding and its absence hold for the method and conditions named. In cells and extracts the contact can be indirect. Some binding calls cover weakened binding; strength is not graded here.
# Tests used:
# [1] = target: HA-tagged full-length Syb2 (human) (UniProt P63027); experiment: co-IP; HeLa cells co-expressing FLAG-tagged epsin 1 and HA-tagged Syb2 constructs; lysis in 150 mM NaCl, 0.1% SDS, 0.5% Triton X-100, 10 mM EDTA, 20 mM Hepes pH 7.4; anti-HA agarose beads 1 hour at 4°C; anti-FLAG immunoblot
# Syb2-HA Δ1–31 (human) = Syb2-HA Δ1–31 (human) (UniProt P63027); experiment: as above
substance,measurement,setting,value
FLAG-tagged full-length epsin 1 (from UniProt O88339 1-575),binding,[1],binds
same,binding,Syb2-HA Δ1–31 (human),binds
